Data reported in PubChem BioAssay AID651640 (Broad Institute, 2012).
The campaign covered roughly 350,000 compounds. About 6,000 (1.7%) were called active. Inconclusive results, whose numbers are uncertain, are shown with a selection of clear calls. Rule as the data show it: active = CPE inhibition above about 20% (passing the limit was not always enough); inconclusive = no clear call, values can overlap the other calls; tested in BHK-21 cells.

test: protection of cells from dengue 2 killing – plate reader, single concentration, primary screen (AID 651640); conditions: DENV2-infected cells, cytopathic effect rescue, at 9.99 µM, stronger effect = higher value;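 also: 0% = median of neutral control wells and 100% = median of positive control wells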

**Q.** Which CPE inhibition does the source give for `COCCCN1C(=O)[C@@]2(Cc3ccccc31)c1ccccc1C(=O)N(Cc1ccccc1)[C@H]2c1ccc(CO)cc1` here?
**A.** active: 23.3%

**Q.** With `CN(C(=O)c1ccc(NC(=O)Cc2ccc(NC(=O)C3CCN(C(=O)c4ccccc4)CC3)cc2)cc1)C1CC1` as the compound, how does the CPE inhibition read?
**A.** inconclusive: 64.1%

**Q.** Which CPE inhibition does the source give for `OC(Cc1cccnc1)(c1ccccc1)c1ccccc1` here?
**A.** inconclusive: 38.3%

**Q.** Which CPE inhibition does the source give for `COc1cc(CC(NC(C)=O)C(=O)NC2CCN(C(=O)c3cc(OC)c(OC)c(OC)c3)CC2)cc(OC)c1` (stereo not given) here?
**A.** inactive: 5.36%

**Q.** Which CPE inhibition does the source give for `C[C@H](CO)N1C[C@H](C)[C@@H](CN(C)C(=O)CN(C)C)Oc2cc(Br)ccc2S1(=O)=O` here?
**A.** active: 33.1%

**Q.** With `C[C@H](CO)N1C[C@H](C)[C@@H](CN(C)S(=O)(=O)c2ccc(Cl)cc2)OCCCC[C@H](C)Oc2ccc(NS(=O)(=O)c3cn(C)cn3)cc2C1=O` as the compound, how does the CPE inhibition read?
**A.** inconclusive: 21%

**Q.** With `N#CCc1ccc(NC(=O)c2cc(S(=O)(=O)N3CCOCC3)ccc2Cl)cc1` as the compound, how does the CPE inhibition read?
**A.** active: 60.1%

**Q.** For `COc1ccc(N2CSC3=C(C#N)C(c4cc(OC)c(OC)cc4OC)CC(=O)N3C2)c(OC)c1` (stereo not given), which CPE inhibition is on record?
**A.** inconclusive: 37.5%

**Q.** With `C/C=C/c1ccc(C2[C@H]3CNC[C@@H]2N3C(=O)Nc2ccc(C(F)(F)F)cc2)cc1` (stereo not given in full) as the compound, how does the CPE inhibition read?
**A.** inconclusive: 56.6%

**Q.** With `O=C(Nc1ccccc1)N1CCCCN2[C@H](CO)[C@H](c3ccc(C#Cc4cccnc4)cc3)[C@@H]2C1` as the compound, how does the CPE inhibition read?
**A.** inactive: -2.46%

**Q.** With `CO[C@H]1CN(C)C(=O)c2cc(NS(=O)(=O)c3ccccc3)ccc2OC[C@@H](C)N(C(=O)NC(C)C)C[C@H]1C` as the compound, how does the CPE inhibition read?
**A.** inactive: 4.8%

**Q.** Which CPE inhibition does the source give for `CC1(C(=O)NS(=O)(=O)c2ccccc2Cl)CCN1C(=O)C1(c2ccccc2)CC1` (stereo not given) here?
**A.** inconclusive: 45.9%

**Q.** Which CPE inhibition does the source give for `C[C@@H]1CCCCO[C@H](CN(C)Cc2ccccc2)[C@H](C)CN([C@@H](C)CO)C(=O)c2cc(NC(=O)Cc3ccccc3)ccc2O1` here?
**A.** inconclusive: 32.8%

**Q.** For `CCc1nc2ccc(C(=O)N3CCCCC3)cn2c1N(C)CCCc1ccccc1`, which CPE inhibition is on record?
**A.** inconclusive: 48.8%

**Q.** Which CPE inhibition does the source give for `COc1cccc(C(NC(C)=O)c2nc(-c3csc4ccccc34)cs2)c1` (stereo not given) here?
**A.** inconclusive: 23.4%

**Q.** Which CPE inhibition does the source give for `COc1cccc(C(=O)N2C[C@@H]3[C@H](c4ccccc42)[C@H](CO)N3Cc2ccccc2Cl)c1` here?
**A.** inactive: 1.36%

**Q.** Which CPE inhibition does the source give for `COc1ccc(S(=O)(=O)Nc2ccc3c(c2)CC(=O)N([C@H](C)CO)C[C@H](C)[C@H](CN(C)Cc2ccc(Cl)c(Cl)c2)O3)cc1` here?
**A.** inconclusive: 33.6%

**Q.** For `O=C(Cc1c(F)cccc1Cl)NNC(=O)c1ccccc1Cl`, which CPE inhibition is on record?
**A.** inconclusive: 60.3%

**Q.** Which CPE inhibition does the source give for `COc1cc(NC(=O)CCC(=O)Nc2ccc3nc(N4CCOCC4)cc(C)c3c2)cc(OC)c1OC` here?
**A.** inconclusive: 27.3%

**Q.** Which CPE inhibition does the source give for `O=C1NC[C@H](Cc2ccccc2)N(C[C@@H]2CCCN2C[C@H](Cc2ccccc2)N2C[C@H](Cc3ccccc3)N(CCc3ccccc3)C(=O)C2=O)C1=O` here?
**A.** inconclusive: 32.7%

**Q.** For `CCCNC(=O)N1C[C@@H](O)COC[C@@H]2O[C@@H](CC(=O)NCc3ccncn3)CC[C@H]21`, which CPE inhibition is on record?
**A.** inactive: -0.367%

**Q.** With `O=C(Cn1ccc([N+](=O)[O-])n1)NCC1CCCO1` (stereo not given) as the compound, how does the CPE inhibition read?
**A.** active: 26.6%

**Q.** For `C[C@@H]1CN([C@H](C)CO)S(=O)(=O)c2ccc(Br)cc2O[C@H]1CN(C)C(=O)Nc1cccc(F)c1`, which CPE inhibition is on record?
**A.** inconclusive: 32.7%

**Q.** For `CN1CCCCN2[C@H](C1)[C@@H](c1ccc(-c3ccc(F)cc3)cc1)[C@@H]2CO`, which CPE inhibition is on record?
**A.** inconclusive: 22.7%

**Q.** Which CPE inhibition does the source give for `COC1c2ccccc2C(=O)N1Cc1ccc(F)cc1` (stereo not given) here?
**A.** inconclusive: 26.4%

**Q.** With `Cc1ccc(C(=O)OC(C)C(=O)NCc2ccc3c(c2)OCO3)cc1S(=O)(=O)N1CCOCC1` (stereo not given) as the compound, how does the CPE inhibition read?
**A.** inconclusive: 21.3%

**Q.** For `O=C(C[C@@H]1CC[C@@H](NC(=O)C2CC2)[C@H](CO)O1)Nc1nccs1`, which CPE inhibition is on record?
**A.** inactive: 2.34%

**Q.** Which CPE inhibition does the source give for `C[C@@H]1CN([C@@H](C)CO)C(=O)c2cc(NS(=O)(=O)c3cn(C)cn3)ccc2O[C@H]1CN(C)C` here?
**A.** inactive: 7.31%

**Q.** For `COc1cc(O)c(C(CC(=O)N2CCCC(C)C2)c2cc(OC)c(OC)c(OC)c2)c(OC)c1` (stereo not given), which CPE inhibition is on record?
**A.** active: 61.9%

**Q.** For `C[C@H](NC(=O)C[C@@H]1C=C[C@@H](NC(=O)Nc2ccc3c(c2)OCO3)[C@@H](CO)O1)c1ccccc1`, which CPE inhibition is on record?
**A.** inactive: 15.3%

**Q.** With `CN1C(=O)c2cc(NC(=O)c3cccs3)ccc2OC[C@@H]2O[C@H](CC(=O)NCC3CC3)CC[C@@H]21` as the compound, how does the CPE inhibition read?
**A.** inconclusive: 35.8%

**Q.** With `Cc1ccn2cc(C(=O)N3CCCC(Nc4ccc(F)cc4)C3)nc2c1` (stereo not given) as the compound, how does the CPE inhibition read?
**A.** inconclusive: 31.2%

**Q.** For `CCCCCOc1ccc(C(=O)CCC(=O)N2CCCC2)cc1`, which CPE inhibition is on record?
**A.** inconclusive: 24.3%

**Q.** Which CPE inhibition does the source give for `O=C(Nc1cccc2ccccc12)OCc1ccccc1` here?
**A.** inconclusive: 61%

**Q.** With `CCNC(=O)Nc1ccc2c(c1)C(=O)N(C)[C@H]1CC[C@H](CC(=O)Nc3ccccc3Cl)O[C@@H]1CO2` as the compound, how does the CPE inhibition read?
**A.** inconclusive: 24.1%

**Q.** With `CC1(C(=O)NCc2ccc3c(c2)OCO3)CCN1C(=O)C1(c2ccc(Cl)cc2)CC1` (stereo not given) as the compound, how does the CPE inhibition read?
**A.** inconclusive: 21.2%

**Q.** For `CC(C)(C)OC(=O)N[C@@H](/C=C/c1ccccc1)C(=O)OC(C)(C)C`, which CPE inhibition is on record?
**A.** inconclusive: 58.6%

**Q.** For `C[C@@H]1CCCCO[C@@H](CN(C)C(=O)c2ccccc2)[C@@H](C)CN([C@@H](C)CO)C(=O)c2cc(NC(=O)Nc3ccccc3)ccc2O1`, which CPE inhibition is on record?
**A.** inconclusive: 51.9%

**Q.** With `COC(=O)c1ccccc1NC(=O)C1CCN(C(=O)Cc2ccccc2)CC1` as the compound, how does the CPE inhibition read?
**A.** inconclusive: 29.6%

**Q.** Which CPE inhibition does the source give for `CCS(=O)(=O)N1CCCCN2[C@H](CO)[C@@H](c3ccc(C#Cc4ccccc4OC)cc3)[C@H]2C1` here?
**A.** inactive: -7.86%

**Q.** With `CCN(C(=O)CN1C(=O)NC(CCSC)C1=O)C1CCS(=O)(=O)C1` (stereo not given) as the compound, how does the CPE inhibition read?
**A.** inconclusive: 33.5%

**Q.** For `CCCC(=O)Nc1ccc2c(c1)C(=O)N(C)[C@H]1CC[C@H](CC(=O)NCCCN(C)C)O[C@@H]1CO2`, which CPE inhibition is on record?
**A.** active: 60.7%

**Q.** With `C[C@@H]1CC=C[C@H]2[C@H]1C(=O)N(Cc1ccccc1)[C@H]2c1ccc(-c2ccc(F)cc2)cc1F` as the compound, how does the CPE inhibition read?
**A.** inconclusive: 41.7%

**Q.** For `CC1CC(C)CN(S(=O)(=O)c2ccc(NC(=O)c3ccc(=O)[nH]c3)cc2)C1` (stereo not given), which CPE inhibition is on record?
**A.** inactive: -5.55%

**Q.** With `C[C@H](O)C#Cc1ccc2c(c1)O[C@@H](CN(C)C(=O)Cc1ccccn1)[C@H](C)CN([C@@H](C)CO)S2(=O)=O` as the compound, how does the CPE inhibition read?
**A.** inactive: 12.1%
